Among the data in PubChem BioAssay AID1347426 (Functional Genomics Laboratory (NCATS/FGL), 2020) are median seed-adjusted z-score values, retold here.

About 1,400 (4.5%) of roughly 31,000 sequences were called active.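 The calls were made as follows: active = median seed-adjusted z-score above 1 or below -1; inactive = the rest.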 The list shows a part of the results.

The nature of the assay: Novel Modifiers of Survival Motor Neuron (SMN) Protein: Gene Identification via Genome-wide siRNA Screen.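 Also: luminescence tracks full-length SMN protein made from the SMN2 reporter.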 The settings on record: HEK293T SMN2-luciferase reporter, siRNA knockdown, 72 h; actives lie on both sides. The essentials: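 Steps: spot 1 pmol siRNA, add Lipofectamine RNAiMax in serum-free DMEM, seed HEK293T SMN2–luciferase reporter cells; incubate 72 h at 37 °C; add ONE-Glo; normalize luminescence to control siRNA, log10, MAD. Candidates: |MAD| > 1.0.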
For GGCAUUAUCCUUUUCCUGUTT against SLC38A3, the median seed-adjusted z-score was inactive: -0.177.
The figure for UCGAUAUUCUAAGAUCACATT against UBE2D3 is active: 1.62; for CGCUCGAACUUUCCACUAUTT against HCN1 it is inactive: -0.107.
Next, AGAUUUUGAAGGCCGAGUATT against CAMK1: inactive: 0.325; AGUCAACCGUGUUACCAUATT against PABPN1: inactive: -0.757; ACUUCUUCUUAAUAGCUGUTT against PTGER3: inactive: -0.321.
In the case of GCGCGCUACUUUGGGAUAATT against POLR2E, the median seed-adjusted z-score was active: -1.25.
CAUUCGGACUCUACAUAUATT against TRMT11: the median seed-adjusted z-score was inactive: -0.707.
As to GUACCUGCGGGAUUACUCATT against CCT7, the median seed-adjusted z-score was inactive: -0.246.
With GGGACUUAAUUUGAGCAUATT against SUPV3L1, the median seed-adjusted z-score was inactive: -0.169.
Regarding GUACCUCCAUAAUGAGUAATT against CCT8, the median seed-adjusted z-score is inactive: -0.161.
For GACCCACGCAAAGAACUUATT against ZNF346, the median seed-adjusted z-score was inactive: 0.00564.
Take GUACUGAAAAUCGCUCUGATT against KCTD21: the median seed-adjusted z-score is inactive: 0.0236.
On to CUAGUGGUCAGAUAUCUUATT against ZNF620, for which the median seed-adjusted z-score is inactive: 0.172.
In the case of CCAUAUUAAUGUCCAUGAUTT against PCDHB7, the median seed-adjusted z-score is inactive: 0.365.
For the sequence AGAAUCCCACUGAUGCAUATT against MRLC2, the median seed-adjusted z-score was inactive: -0.492.
Next, GCCUUACAAUAGCAUGUAUTT against SLU7: inactive: -0.97; AGAUGUACAGGAAUCGCUATT against AKR7A3: inactive: 0.455.
Regarding ACAUCUCCAUUGUCAAGCATT against GIT1, the median seed-adjusted z-score was inactive: -0.307.
For the sequence GAUCUAGAGAAAUCGCUUUTT against CEP135, the median seed-adjusted z-score was inactive: -0.2.
The figure for GAAUGGUCCUAAAACACCATT against NFE2L2 is inactive: -0.596.
Take GGAACUUGCUCGACUGAGATT against ZRSR2: the median seed-adjusted z-score was inactive: 0.0222.
For the sequence CAGCCGUAGUGAUUAUUCUTT against HTR2A, the median seed-adjusted z-score is inactive: 0.0665.
On to ACAAAGCGGUGGAUCCCAUTT against CNTNAP3, for which the median seed-adjusted z-score was inactive: 0.15.
Next, GGAAUAGACUUCAAGAUCATT against RAB10: inactive: -0.319.
The figure for GCUUUAGAAUACAUACCAATT against IFIT2 is inactive: -0.0205; for CCUCCUAUUUAAUUUCCUUTT against MAS1L it is inactive: 0.0585.
The figure for GUAUCAAGGUUGGGCGAGATT against MYH11 is inactive: 0; for GGUCAACGUGAUGUCCGAATT against ACOT7 it is inactive: 0.665.
For CACCAGAUCUUCAAUCUAUTT against PPP1CC, the median seed-adjusted z-score is inactive: -0.344.
On to CCUUCUUCGACAACAGGAATT against TESC, for which the median seed-adjusted z-score was inactive: -0.17.
CGUCCACCAUCUGCAAGUATT against MKRN2: the median seed-adjusted z-score is inactive: 0.
In the case of GCUGCGAAAGGAUCUCAAATT against UBE3B, the median seed-adjusted z-score is inactive: 0.0972.
For the sequence UAACCCUCAUGGACGCAGATT against SOX15, the median seed-adjusted z-score was inactive: -0.376.
Turning to CUACUUAUCAGGUCACGUATT against SLC35A3, the median seed-adjusted z-score is inactive: 0.321.
For the sequence CAGUCUUCAUUGCUACUAATT against NFE2L2, the median seed-adjusted z-score was inactive: -0.596.
GCUUUAUGCUGCUAAGGCATT against PGD: the median seed-adjusted z-score was active: -1.55.
Next, CACCCUUGUUUUGCCGAAATT against STAP1: inactive: 0.
With CCAAGAUGAUCUUCGAGUATT against MYO6, the median seed-adjusted z-score was inactive: 0.
As for CCACAGUUAUCGACAUGAATT against KCNJ15, the median seed-adjusted z-score was inactive: 0.0332.
Next, GGCUUCUCAUCGGAUCAGATT against TESC: inactive: -0.17.
Turning to GGAUGAAAUACUAGAGAAATT against EIF2S2, the median seed-adjusted z-score is inactive: 0.576.
The figure for CCAGCAUAUCAAAUCAAGATT against TSGA14 is inactive: 0.433.
On to GCACUUAAAUAGUACUGAUTT against CLK4, for which the median seed-adjusted z-score was inactive: -0.201.
As to ACCUCAACUCGGCACUGGATT against NEUROG3, the median seed-adjusted z-score was inactive: 0.212.
Take CAUGGACCCUGGUUACAAATT against SUFU: the median seed-adjusted z-score was inactive: -0.263.
For the sequence CGGCACAACCUAUCCCUCATT against FOXN1, the median seed-adjusted z-score is inactive: 0.226.
Consider GUUGUUCCCUAAUGGGUUATT against GDPD4, for which the median seed-adjusted z-score was inactive: 0.0109.
On to AGAGCAUUCACAAACUGAATT against RBM8A, for which the median seed-adjusted z-score is inactive: 0.
For GAUCAAGUCUAACUACCCATT against ZNF160, the median seed-adjusted z-score was inactive: -0.454.
Next, CCUGUAGAUUUGUCAACUATT against RANBP2: active: 1.53; GGCUAAUACUGGAAUUGCUTT against SLC38A2: active: -1.04.
The figure for GACAUUGCUAUGACAGAUATT against FKBP7 is inactive: -0.053; for UGAUCAGGCAGGUUCAUAATT against GSTM5 it is inactive: -0.861; for GAAGGGACGUGAGCUAUAATT against RSHL3 it is inactive: -0.407.
With GGAGGAUGAGUGACGAGUUTT against BAD, the median seed-adjusted z-score was inactive: 0.
With GGCUGAAGGACUUACGACUTT against INTS6, the median seed-adjusted z-score was inactive: -0.0163.
Turning to GCUCUGUACCAUUUCAGCATT against KLK1, the median seed-adjusted z-score was inactive: -0.216.
CGGUUGCUGUGGACUCUUATT against ALG12: the median seed-adjusted z-score was inactive: -0.401.
Turning to GCCCACAUGUUUAAGGACATT against KCTD9, the median seed-adjusted z-score is active: 1.31.
For GAGUUCCACUUCAUGCAAATT against CABC1, the median seed-adjusted z-score was inactive: -0.197.
As for UGUUGACACUUUUAUCCAATT against ANAPC11, the median seed-adjusted z-score is inactive: -0.581.
For the sequence CGGUCCAGUUUGUAUCGGATT against ZFP64, the median seed-adjusted z-score was inactive: -0.659.
In the case of GGCGAUGAACAAUAUCCUATT against FAP, the median seed-adjusted z-score was inactive: -0.258.
With GGCUCUUUCAAGAUAGUAATT against AHR, the median seed-adjusted z-score was inactive: -0.0422.
As for GGUGCUCAGCAAAUGCCUATT against CRCT1, the median seed-adjusted z-score is inactive: -0.146.
As to ACAUAUGAACGAACCCUGATT against GEM, the median seed-adjusted z-score is inactive: 0.018.
In the case of CAAGACAUGCUUUAAAUGUTT against ZCCHC3, the median seed-adjusted z-score was inactive: -0.849.
As to AUUUGUUGGUUGUCGAAUATT against GPR143, the median seed-adjusted z-score is inactive: 0.366.
The figure for CCAAUUCUACAAAAGCAAATT against SRD5A3 is inactive: -0.165; for GGAUGUUGACUGCCUUGAATT against CCNE1 it is inactive: -0.693.
On to GGAGAUCUUUCACCUACAATT against ZNF658, for which the median seed-adjusted z-score is inactive: 0.091.
As for GAACAAUGCUGUACCAGCATT against INS, the median seed-adjusted z-score is inactive: 0.
Next, GAGUGGACGGUUUAUCAUATT against TXNDC1: inactive: 0.458.
As for GGAAAACUGCGUACUCAUATT against PSMD11, the median seed-adjusted z-score is inactive: -0.156.
The figure for GGACAAGGAGUGUCGGAGATT against ZFYVE21 is inactive: -0.186; for GGUAGUGCCUGUUUGGAUATT against CYP4F2 it is inactive: -0.387.
For the sequence GGAUGUAUUCUGACGAUGATT against CLASP1, the median seed-adjusted z-score was inactive: 0.0472.
In the case of GCGACUACGUGAUUGGAAUTT against KCNK17, the median seed-adjusted z-score is inactive: -0.579.
Regarding CAACGAGAAUGACUGCUGATT against PTPDC1, the median seed-adjusted z-score was inactive: -0.191.
On to GCCUGUGAAAUGUAUACUATT against ESCO1, for which the median seed-adjusted z-score was inactive: 0.755.
In the case of CGGAAUUAGUGUUAUCCAUTT against CEBPG, the median seed-adjusted z-score was inactive: -0.561.
The figure for GCAGUCCUCCAUUAAGGUATT against NR4A2 is inactive: -0.654; for GGGAUUUCGCUUCUACUCATT against FCRL5 it is inactive: -0.138.
In the case of AAUCGAGAGUGGUACCAGATT against PDE4C, the median seed-adjusted z-score was inactive: 0.565.
Take GGAUUUAUACAGUGCACUATT against CPVL: the median seed-adjusted z-score was inactive: 0.334.
Take GCAAGACAAGUGAAGUCAATT against CNBP: the median seed-adjusted z-score is active: -1.14.
Take CAACCAUUCUUAGUAAGAUTT against CCNC: the median seed-adjusted z-score was inactive: -0.606.
Turning to AGACUACCAGGAUAACAAATT against EIF1AX, the median seed-adjusted z-score is inactive: 0.878.
Next, UGGUGCUGUUGGUAAAACATT against CDC42: inactive: -0.0938; GAAUCGGCGUGAUAACCAUTT against SLC34A2: inactive: 0.
The figure for GGAUAAUGAUGACGGGAGATT against SYT9 is inactive: 0.0419; for CAGGUCGACUGAUAGAUCATT against DDX42 it is active: -2.13; for GCCCAGCUAUGUGACUUCATT against CLTB it is inactive: 0.319.
On to CGACACCAGGAGUACCUCUTT against IKBKE, for which the median seed-adjusted z-score was inactive: 0.122.
For the sequence GCAUAUGAUUUUAUGGUAATT against FBXW7, the median seed-adjusted z-score was inactive: 0.
With GCUUUACCGUGAACCUCCATT against PKLR, the median seed-adjusted z-score was inactive: 0.587.
The figure for GGAUACAGACGAUACCGAATT against USP8 is inactive: 0.743; for GGAACGAGAUGAUCAUGUUTT against SYT13 it is inactive: 0.275.
Next, CAUCAUUACAUAUGCGGUATT against MFSD2: inactive: -0.325; GGUUUAGGAAGGAAACGAATT against VENTX: inactive: 0.669; CUCCAUGGAUUAUGCUAUATT against ZNF398: inactive: 0.119.
As to CCUCAACUCUCUACGCUUUTT against KIFC1, the median seed-adjusted z-score is inactive: 0.0417.
As to GGUAAAACCUUCAACCGCATT against ZNF584, the median seed-adjusted z-score is inactive: 0.172.
GUUGUGGUCUGAUCAGUUATT against TUBA1A: the median seed-adjusted z-score was inactive: 0.284.
As to CAACUAUCAUGCUUCGGAUTT against SPOP, the median seed-adjusted z-score is inactive: 0.000304.
Regarding AAAGUACAUUGUCCAAUCATT against ADPRH, the median seed-adjusted z-score is inactive: -0.406.
Next, CAGUGGACAUUGUCAAGCATT against PARP14: inactive: -0.289.
